This is one part of the list.
Compound: Cc1cc(ccc1-c1ccccc1)C(=O)N1CCCN(CC1)C(=O)CCl [compound 10]
Experiment: probe-labelled cysteine peptide fold change vs DMSO (competition) (log2 fold change); higher = less target engagement (more negative = stronger competition)
Conditions: THP-1, incubation time: 4 h
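Note: competitive profiling in live THP-1 cells: cysteine peptides tagged with an iodoacetamide desthiobiotin (IA-DTB) probe, intensity after compound treatment relative to DMSO-treated cells.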

| Target | probe-labelled cysteine peptide fold change (10 µM) | probe-labelled cysteine peptide fold change (50 µM) |
| --- | --- | --- |
| PUM1_Q14671_1007_GQVFALSTHPYGCR (UniProt Q14671) | 0.0338 | -0.0424 |
| PSMD14_O00487_299_RHLEEHVDVLMTSNIVQCLAAMLDTVVFK (UniProt O00487) | 0.0447 | -0.0374 |
| PSME4_Q14997_820_DDILQSLTIVHNCLIGSGNLLPPLK (UniProt Q14997) | 0.41 | 0.404 |
| PSMD2_Q13200_251_CALGVFR (UniProt Q13200) | 0.0325 | 0.275 |
| PTCD3_Q96EY7_260_NEHSYCTMIR (UniProt Q96EY7) | -0.0913 | 0.011 |
| PTK2B_Q14289_180_VSEGMALQLGCLELRR (UniProt Q14289) | -0.0794 | -0.123 |
| PSMA4_P25789_163_ATCIGNNSAAAVSMLK (UniProt P25789) | 0.0539 | -0.0837 |
| PTPA_Q15257_199+200_IDYGTGHEAAFAAFLCCLCK (UniProt Q15257) | -0.00482 | -0.0603 |
| PTPN23_Q9H3S7_65_DFEGCSVLR (UniProt Q9H3S7) | -0.197 | -0.201 |
| PUM3_Q15397_185_VIQCYIQYGNEEQR (UniProt Q15397) | -0.00437 | 0.315 |
| PTPN12_Q05209_343_SCLVEGDAK (UniProt Q05209) | -0.107 | -0.0347 |
| PTAR1_Q7Z6K3_314_INLPHLLEEEVEFSTDLIDSYPGHETLWCHR (UniProt Q7Z6K3) | -0.377 | -0.0279 |
| PSMC2_P35998_270_ACLIFFDEIDAIGGAR (UniProt P35998) | 0.146 | 0.162 |
| PTPRF_P10586_54_VPEDQTGLSGGVASFVCQATGEPKPR (UniProt P10586) | -0.197 | -0.86 |
| PUM2_Q8TB72_887_GQVFVLSTHPYGCR (UniProt Q8TB72) | 0.0852 | -0.371 |
| PTPN11_Q06124_333_SYIATQGCLQNTVNDFWR (UniProt Q06124) | 0.199 | 0.299 |
| PSMB8_P28062_174_GMGLSMGSMICGWDK (UniProt P28062) | 0.088 | 0.148 |
| PSMD13_Q9UNM6_276_KIQLLCLMEMTFTR (UniProt Q9UNM6) | -0.295 | 0.385 |
| PTGR1_Q14914_239_IAICGAISTYNR (UniProt Q14914) | -0.119 | 0.126 |
| PSMC4_P43686_210_QIGIDPPRGVLMYGPPGCGK (UniProt P43686) | -0.144 | -0.356 |
| PTPRC_P08575_400_TDFGSPGEPQIIFCR (UniProt P08575) | -0.00947 | 0.274 |

| Target | probe-labelled cysteine peptide fold change (10 µM) | probe-labelled cysteine peptide fold change (50 µM) |
| --- | --- | --- |
| PUM3_Q15397_185_VIQCYIQYGNEEQRK (UniProt Q15397) | 0.106 | -0.0249 |
| PSMA7_O14818_91_ARVECQSHR (UniProt O14818) | -0.0556 | 0.107 |
| PTPN6_P29350_361_CVPYWPEVGMQR (UniProt P29350) | 0.0529 | -0.0356 |
| PTPN9_P43378_338_YGDVPCLDQTR (UniProt P43378) | -0.239 | -0.197 |
| PURA_Q00577_272_FGHTFCK (UniProt Q00577) | -0.22 | -0.422 |
| PSMD1_Q99460_703_QGALIASALIMIQQTEITCPK (UniProt Q99460) | 0.0193 | 0.0986 |
| PSMA6_P60900_161_CDPAGYYCGFK (UniProt P60900) | 0.189 | -0.00591 |
| PTPRF_P10586_156_TATMLCAAGGNPDPEISWFK (UniProt P10586) | -0.318 | -0.602 |
| PTK2B_Q14289_395_SHLSESCSIESDIYAEIPDETLR (UniProt Q14289) | -0.213 | -0.461 |
| PSMD11_O00231_257_YMLLCK (UniProt O00231) | 0.248 | 0.241 |
| PTK2B_Q14289_298_QLTSQDAKPTCLAEFK (UniProt Q14289) | -0.2 | -0.298 |
| PTDSS1_P48651_419_TYSECEDGTYSPEISWHHR (UniProt P48651) | 0.122 | 0.398 |
| PSMB2_P49721_46_ILLLCVGEAGDTVQFAEYIQK (UniProt P49721) | 0.389 | 0.337 |
| PTCD2_Q8WV60_355_FDEIYGTLHITGQVTTDSLDAVLCHTPR (UniProt Q8WV60) | -0.196 | 0.084 |
| PTK2B_Q14289_44_VCFYSNSFNPGK (UniProt Q14289) | 0.206 | 0.0256 |
| PSMB1_P20618_89_TVIGCSGFHGDCLTLTK (UniProt P20618) | 0.139 | -0.0465 |
| PSMA5_P28066_47_LGSTAIGIQTSEGVCLAVEK (UniProt P28066) | 0.229 | 0.149 |
| PSMA4_P25789_74_LNEDMACSVAGITSDANVLTNELR (UniProt P25789) | -0.101 | 0.275 |
| PSME4_Q14997_459_TYPALETLTEPHQLTATLSCVIGVAR (UniProt Q14997) | 0.121 | 0.105 |
| PSMD13_Q9UNM6_182_FLGCVDIK (UniProt Q9UNM6) | -0.102 | 0.096 |
| PSMB2_P49721_91_RNLADCLR (UniProt P49721) | -0.0547 | -0.266 |

Shown in CSV form: part of the list above.
Target,probe-labelled cysteine peptide fold change (10 µM),probe-labelled cysteine peptide fold change (50 µM)
PTPN6_P29350_361_CVPYWPEVGMQR (UniProt P29350),0.0529,-0.0356
PTPN9_P43378_338_YGDVPCLDQTR (UniProt P43378),-0.239,-0.197
PURA_Q00577_272_FGHTFCK (UniProt Q00577),-0.22,-0.422

The listing continues.

| Target | probe-labelled cysteine peptide fold change (10 µM) | probe-labelled cysteine peptide fold change (50 µM) |
| --- | --- | --- |
| PTPN7_P35236_62_SLGAVEPICSVNTPR (UniProt P35236) | -0.192 | -0.402 |
| PTGES3_Q15185_76_SILCCLR (UniProt Q15185) | -0.111 | -0.338 |
| PSMD13_Q9UNM6_114_SSDEAVILCK (UniProt Q9UNM6) | 0.0347 | 0.0864 |
| PSMD12_O00232_109_MVQQCCTYVEEITDLPIK (UniProt O00232) | 0.0825 | 0.283 |
| PTPN7_P35236_291_LVAEVEESPETAAHPGPIVVHCSAGIGR (UniProt P35236) | 0.109 | -0.295 |
| PSMF1_Q92530_17_AGLEVLFASAAPAITCR (UniProt Q92530) | -0.0548 | -0.159 |
| PTPRE_P23469_244_CHQYWPDQGCWTYGNIR (UniProt P23469) | -0.00327 | 0.402 |
| PSMA7_O14818_70_ICALDDNVCMAFAGLTADAR (UniProt O14818) | 0.412 | 0.268 |
| PSMD1_Q99460_378_NSVCHTATVIANSFMHCGTTSDQFLR (UniProt Q99460) | 0.086 | 0.245 |
| PSMD1_Q99460_378_NSVCHTATVIANSFMHCGTTSDQFLRDNLEWLAR (UniProt Q99460) | 0.143 | -0.213 |
| PSME3_P61289_92_RLDECEEAFQGTK (UniProt P61289) | -0.283 | -0.427 |
| PTPRF_P10586_615_VMCVSMGSTTVR (UniProt P10586) | 0.181 | -0.763 |
| PTPRS_Q13332_107_DENVYECVAQNSVGEITVHAK (UniProt Q13332) | 0.185 | -0.167 |
| PTPN12_Q05209_235_YQEHEDVPICIHCSAGCGR (UniProt Q05209) | 0.255 | 0.000567 |
| PTGFRN_Q9P2B2_429_VPGFADDPTELACR (UniProt Q9P2B2) | -0.0378 | 0.145 |
| PSMD2_Q13200_139_FAADIISVLAMTMSGERECLK (UniProt Q13200) | 0.00792 | -0.301 |
| PTPRC_P08575_853_RVNAFSNFFSGPIVVHCSAGVGR (UniProt P08575) | -0.0401 | 0.167 |
| PTPRC_P08575_762_CAEYWPSMEEGTR (UniProt P08575) | -0.296 | -0.129 |
| PTPN1_P18031_344_EETQEDKDCPIKEEK (UniProt P18031) | -0.593 | -1.57 |
| PSMD1_Q99460_660_YGAAMALGICCAGTGNK (UniProt Q99460) | -0.0461 | 0.143 |
| PTER_Q96BW5_38_TLTHEHLAMTFDCCYCPPPPCQEAISK (UniProt Q96BW5) | -0.121 | -0.663 |

| Target | probe-labelled cysteine peptide fold change (10 µM) | probe-labelled cysteine peptide fold change (50 µM) |
| --- | --- | --- |
| PTPRC_P08575_789_CPDYIIQK (UniProt P08575) | 0.0331 | 0.0627 |
| PSMD12_O00232_74_MCYEAK (UniProt O00232) | 0.0642 | 0.189 |
| PSMA5_P28066_165_GPQLFHMDPSGTFVQCDAR (UniProt P28066) | 0.0144 | 0.0728 |
| PTK2B_Q14289_562_NILVASPECVK (UniProt Q14289) | -0.0262 | 0.132 |
| PUF60_Q9UHX1_487_DIDDDLEGEVTEECGK (UniProt Q9UHX1) | -0.0568 | 0.0309 |
| PSMD2_Q13200_139_RFAADIISVLAMTMSGERECLK (UniProt Q13200) | -0.228 | -0.21 |
| PTGFRN_Q9P2B2_571_PFFAAGNTFEMTCK (UniProt Q9P2B2) | 0.0192 | -0.0142 |
| PTK2B_Q14289_180_VSEGMALQLGCLELR (UniProt Q14289) | -0.0295 | 0.0688 |
| PTPN6_P29350_453_QESLPHAGPIIVHCSAGIGR (UniProt P29350) | 0.347 | 0.269 |
| PTRHD1_Q6GMV3_118_NIDHMLWLEQPENIATCIALRPYPK (UniProt Q6GMV3) | -0.0248 | -0.276 |
| PSMD1_Q99460_659_YGAAMALGICCAGTGNK (UniProt Q99460) | -0.109 | -0.0185 |
| PTPN6_P29350_171_VMCEGGR (UniProt P29350) | -0.121 | 0.0139 |
| PTPRF_P10586_1891_TQRPAMVQTEDQYQLCYR (UniProt P10586) | -0.0256 | -0.148 |
| PTPRC_P08575_434_DCLNLDK (UniProt P08575) | -0.329 | -0.108 |
| PSTPIP2_Q9H939_221_ACEAFEAQECER (UniProt Q9H939) | 0.0423 | 0.0945 |
| PSMD14_O00487_238_SWMEGLTLQDYSEHCK (UniProt O00487) | -0.044 | -0.396 |
| PTPN23_Q9H3S7_1466_HGVPPPCKPLASASISQK (UniProt Q9H3S7) | -0.222 | -0.866 |
| PTRHD1_Q6GMV3_52_DLSQAPFSWPAGALVAQACHAATAALHTHR (UniProt Q6GMV3) | 0.226 | 0.0043 |
| PTPMT1_Q8WUK0_127+132_YQSLGQCVYVHCK (UniProt Q8WUK0) | 0.0587 | -0.0194 |

From the supplement of paper PMC12067093, “Discovery and optimisation of a covalent ligand for TRIM25 and its application to targeted protein ubiquitination” (Chemical Science, 2025)
